Measurements reported in PubChem BioAssay AID652259 (Drosophila RNAi Screening Center, 2013)

Aim: 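Genome-wide hunt for genes that control Wingless pathway activity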 (primary screen)
System: Drosophila clone 8 imaginal disc epithelial cells
Reagents: long dsRNA against Drosophila genes
Challenge: pathway stimulated by co-transfected Wingless expression plasmid
Detection: 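Firefly luciferase from a tcf-site Wingless reporter, measured alongside co-transfected Renilla luciferase that tracks transfection; pathway stimulated by a Wingless plasmid; the firefly-to-Renilla ratio is not deposited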
Scale: firefly reporter light: higher = more Wg reporter light, before normalisation; Renilla control light: higher = more transfected or surviving cells
Rule for the call: 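a knock-down is a candidate when at least two out of four statistical tests show it departing from its plate mean; one test alone signals a weak candidate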
Meaning of the calls: active = candidate regulator (raises or lowers reporter); inactive = not a candidate
In all, the deposit lists about 22,000 reagents; this is a random part of those that have a named target and a result. In the full data, 233 (1.1%) got an active call. 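Light values are raw, unnormalised plate reads; the ratio scores behind the reporter calls were not deposited.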 Entries without a mark were called inactive. Names joined by + are all predicted targets of the reagent. No sequences are given here. Not given: the amount of reagent, the time to read-out, the dose of the treatment.

The first 8 records, ahead of the listing:
predicted target,dsRNA,"reporter change call, replicate 1","firefly reporter light, replicate 1","firefly reporter light, replicate 2","Renilla control light, replicate 1","Renilla control light, replicate 2"
NK7.1 (GeneID 41747),DRSC16755,,6601,,1653,
CG12279 (GeneID 41570),DRSC14495,,24317,,5645,
CG14851 (GeneID 41763),DRSC14975,,18678,,4701,
CG14851 (GeneID 41763),DRSC21500,,6.35e5,6.93e5,2.75e5,2.30e5
spict (GeneID 34681),DRSC02157,,8098,,2856,
CheB74a (GeneID 3772073),DRSC09503,,2744,,996,
CG15239 (GeneID 31343),DRSC17972,,11419,,7222,
Aldh7A1 (GeneID 40097),DRSC11083,,7212,,2163,

Main list, repeating the preview:
predicted target,dsRNA,"reporter change call, replicate 1","firefly reporter light, replicate 1","firefly reporter light, replicate 2","Renilla control light, replicate 1","Renilla control light, replicate 2"
NK7.1 (GeneID 41747),DRSC16755,,6601,,1653,
CG12279 (GeneID 41570),DRSC14495,,24317,,5645,
CG14851 (GeneID 41763),DRSC14975,,18678,,4701,
CG14851 (GeneID 41763),DRSC21500,,6.35e5,6.93e5,2.75e5,2.30e5
spict (GeneID 34681),DRSC02157,,8098,,2856,
CheB74a (GeneID 3772073),DRSC09503,,2744,,996,
CG15239 (GeneID 31343),DRSC17972,,11419,,7222,
Aldh7A1 (GeneID 40097),DRSC11083,,7212,,2163,
CG33459 (GeneID 2768847),DRSC05615,,13344,,6487,
CG42399 (GeneID 33176),DRSC00322,,4688,8502,1464,2688
CG42399 (GeneID 33176),DRSC00661,,2070,8537,1232,3170
CG1138 (GeneID 40805),DRSC12530,,4560,,1768,
CG4669 (GeneID 38608),DRSC10440,,5040,,1472,
baz (GeneID 32703),DRSC20309,,21138,,7498,
jv (GeneID 318008),DRSC08831,,2073,,842,
jv (GeneID 318008),DRSC08832,,2652,,1216,
CG34225 (GeneID 5740807),DRSC05270,,16467,,13752,
CG33281 (GeneID 2768938),DRSC00421,,1699,5466,675,1832
CG30432 (GeneID 246611),DRSC04833,,20304,,8864,
Gs1 (GeneID 33172),DRSC00753,,13961,,3723,
CG8292 (GeneID 34125),DRSC03082,,3520,7483,930,2651
CG15861 (GeneID 37990),DRSC04274,,1872,5483,427,2176
tctn + B9d2,DRSC03160,,2403,6586,888,2601
Cpsf100 (GeneID 43426),DRSC14146,,2400,4864,1645,944
AnxB11 (GeneID 32612),DRSC19331,,1453,5463,919,2440
TORIP (GeneID 40158),DRSC10104,,4392,,1652,
JYalpha (retired record) + JYalpha,DRSC21700,,8.13e5,7.45e5,4.99e5,3.45e5
CG34281 (GeneID 50039),DRSC14807,,16477,,4328,
ppk14 (GeneID 33887),DRSC03238,,2215,10866,181,4346
CG33099 (GeneID 326254),DRSC15774,,3491,3526,1634,1204
asRNA:CR43259 + CG31089,DRSC15934,,21622,,19526,
CG16789 (GeneID 41154),DRSC15155,,9992,,1748,
nkt (GeneID 39264),DRSC10144,,7224,,3421,
CG34195 (GeneID 37018),DRSC06909,,4824,,2066,
Ccz1 (GeneID 38455),DRSC08439,,5266,,2144,
CG9590 (GeneID 41907),DRSC16506,,2409,7961,865,2058
Cyt-c-d (GeneID 34995),DRSC03309,,1865,10749,906,4321
CG33235 (GeneID 2768871),DRSC19641,,20418,,10624,
Shawl (GeneID 5740840),DRSC02209,,2133,5411,1258,3155
Shawl (GeneID 5740840),DRSC02748,,5031,7398,1500,4090
CG12104 (GeneID 38187),DRSC08254,,12444,,6288,
CG30288 (GeneID 246531),DRSC22005,,7.78e5,8.25e5,3.00e5,3.17e5
Art7 (GeneID 37664),DRSC04588,,1904,8182,711,2725
s-cup (GeneID 36371),DRSC06277,,5434,,1467,
s-cup (GeneID 36371),DRSC06278,,5684,,2451,
scpr-A + scpr-C,DRSC15737,,13863,,3978,
CG3407 (GeneID 33606),DRSC00603,,6217,,4858,
kek3 (GeneID 34912),DRSC03553,,3930,8080,1533,4390
kek3 (GeneID 34912),DRSC22830,,5.56e5,5.81e5,2.09e5,2.47e5
CG13428 (GeneID 37317),DRSC06390,,10099,,2929,
Hpr1 (GeneID 40723),DRSC12296,,6727,,2647,
CG9485 (GeneID 37435),DRSC04557,,9765,,3216,
CG11529 (GeneID 39395),DRSC09839,,5712,,2256,
CG9514 (GeneID 32418),DRSC20190,,21001,,9333,
CG9514 (GeneID 32418),DRSC20191,,18341,,9292,
CG14760 (GeneID 35802),DRSC06495,,2036,6269,496,2432
Kap3 (GeneID 32071),DRSC19426,,4769,10864,1632,3680
Cpr62Bb (GeneID 38240),DRSC08404,,5755,,2289,
CG5569 (GeneID 37783),DRSC04514,,1779,6396,780,2336
mus301 (GeneID 38905),DRSC10939,,1976,8492,1514,2882
velo (GeneID 38748),DRSC08841,,7604,,529,
velo (GeneID 38748),DRSC09698,Wg reporter activity raised,12573,,1335,
fliI (GeneID 33110),DRSC20578,,3117,,1235,
CG5986 (GeneID 192506),DRSC15931,,3913,6546,1274,2061
CG14982 (GeneID 38464),DRSC08440,,3621,,712,
CG13186 (GeneID 36294),DRSC06311,,8281,,4154,
Ccdc39 (GeneID 40595),DRSC12286,,9968,,4108,
SPR (GeneID 31463),DRSC17390,,3712,,888,
SPR (GeneID 31463),DRSC17886,,26147,,12666,
SPR (GeneID 31463),DRSC18114,,21442,,10545,
SPR (GeneID 31463),DRSC21557,,4.42e5,4.11e5,2.10e5,1.63e5
Rab14 (GeneID 34840),DRSC03403,,6496,,1856,
bb8 (GeneID 42756),DRSC15578,,13200,,11115,
